Data taken from patent US11905249B2, “Covalent inhibitors of equine encephalitis virus” (priority 2021, dated 2024).
Some of these results come from one statement about several compounds together.

The chains behind the UniProt entries cited, without tags or fusion partners. Residues count along the entry.
UniProt P27282, 1003-1322 limits assumed: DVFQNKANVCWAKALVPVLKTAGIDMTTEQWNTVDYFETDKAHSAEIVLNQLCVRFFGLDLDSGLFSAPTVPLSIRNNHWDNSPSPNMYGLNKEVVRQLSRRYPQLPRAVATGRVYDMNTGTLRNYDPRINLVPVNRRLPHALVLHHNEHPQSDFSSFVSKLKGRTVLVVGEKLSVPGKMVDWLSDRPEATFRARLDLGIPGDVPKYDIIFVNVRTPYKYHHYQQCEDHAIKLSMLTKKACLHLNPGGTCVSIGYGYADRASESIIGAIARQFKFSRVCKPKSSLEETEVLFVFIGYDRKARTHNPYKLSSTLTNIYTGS

Biological target: VEEV nsP2 protease (Venezuelan equine encephalitis virus, UniProt P27282)
Format: biochemical

Structure (SMILES)	inactivation of VEEV nsP2	inhibition of the proteolytic activity of VEEV nsP2
C[C@@H]1CC(C)(C)Nc2c(C(=O)N[C@@H](C)/C=C/S(C)(=O)=O)cccc21 [Compound 13]	completely inactivated	dose-dependent manner
C[C@@H]1CC(C)(C)Nc2c(C(=O)NC/C=C/S(C)(=O)=O)cccc21 [Compound 11]	completely inactivated	dose-dependent manner
CC1=CC(C)(C)Nc2c(C(=O)N[C@@H](C)/C=C/S(C)(=O)=O)cccc21 [Compound 12]	completely inactivated	dose-dependent manner
